From the supplement of paper PMC10849652
The other results are listed elsewhere or left out. Residues, ends and D or L forms follow the SMILES beside them. *: point of attachment. Cbz = O=C(OCc1ccccc1)*

Chains of the proteins cited; added tags and fusions are not shown. Lines headed by an entry give the natural chain unless they say otherwise; changes in a name come on top.
UniProt Q9NX46: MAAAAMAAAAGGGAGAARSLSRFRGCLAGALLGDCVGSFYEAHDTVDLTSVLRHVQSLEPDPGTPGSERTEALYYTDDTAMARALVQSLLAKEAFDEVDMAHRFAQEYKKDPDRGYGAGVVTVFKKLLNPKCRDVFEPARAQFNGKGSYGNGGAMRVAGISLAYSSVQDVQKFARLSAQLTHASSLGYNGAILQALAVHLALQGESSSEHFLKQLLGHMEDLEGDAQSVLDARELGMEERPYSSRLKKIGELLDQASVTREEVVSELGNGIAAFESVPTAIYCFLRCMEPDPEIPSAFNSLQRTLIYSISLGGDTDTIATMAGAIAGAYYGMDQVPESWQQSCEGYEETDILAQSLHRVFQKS
UniProt Q9BRR6: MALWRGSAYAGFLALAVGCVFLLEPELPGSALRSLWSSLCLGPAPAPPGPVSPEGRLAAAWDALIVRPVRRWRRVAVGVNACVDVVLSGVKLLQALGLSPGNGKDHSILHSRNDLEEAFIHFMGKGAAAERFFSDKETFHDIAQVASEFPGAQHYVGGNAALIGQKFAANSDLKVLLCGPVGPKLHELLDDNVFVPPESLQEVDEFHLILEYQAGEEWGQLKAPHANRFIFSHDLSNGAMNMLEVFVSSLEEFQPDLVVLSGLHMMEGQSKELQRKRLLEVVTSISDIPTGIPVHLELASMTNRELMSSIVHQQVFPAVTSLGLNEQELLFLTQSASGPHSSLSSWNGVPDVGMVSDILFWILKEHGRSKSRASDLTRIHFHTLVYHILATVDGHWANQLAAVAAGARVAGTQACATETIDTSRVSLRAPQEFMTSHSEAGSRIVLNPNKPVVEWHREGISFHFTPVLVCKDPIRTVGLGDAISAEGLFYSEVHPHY
UniProt Q96BJ3: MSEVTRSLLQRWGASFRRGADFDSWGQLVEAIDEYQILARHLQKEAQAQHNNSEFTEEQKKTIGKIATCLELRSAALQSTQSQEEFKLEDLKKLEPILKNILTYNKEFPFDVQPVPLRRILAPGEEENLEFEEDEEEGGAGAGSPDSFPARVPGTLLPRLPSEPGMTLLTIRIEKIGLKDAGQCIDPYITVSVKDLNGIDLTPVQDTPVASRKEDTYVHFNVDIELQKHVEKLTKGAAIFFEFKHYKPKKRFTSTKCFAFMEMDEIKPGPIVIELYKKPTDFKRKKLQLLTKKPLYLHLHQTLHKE
UniProt P30038: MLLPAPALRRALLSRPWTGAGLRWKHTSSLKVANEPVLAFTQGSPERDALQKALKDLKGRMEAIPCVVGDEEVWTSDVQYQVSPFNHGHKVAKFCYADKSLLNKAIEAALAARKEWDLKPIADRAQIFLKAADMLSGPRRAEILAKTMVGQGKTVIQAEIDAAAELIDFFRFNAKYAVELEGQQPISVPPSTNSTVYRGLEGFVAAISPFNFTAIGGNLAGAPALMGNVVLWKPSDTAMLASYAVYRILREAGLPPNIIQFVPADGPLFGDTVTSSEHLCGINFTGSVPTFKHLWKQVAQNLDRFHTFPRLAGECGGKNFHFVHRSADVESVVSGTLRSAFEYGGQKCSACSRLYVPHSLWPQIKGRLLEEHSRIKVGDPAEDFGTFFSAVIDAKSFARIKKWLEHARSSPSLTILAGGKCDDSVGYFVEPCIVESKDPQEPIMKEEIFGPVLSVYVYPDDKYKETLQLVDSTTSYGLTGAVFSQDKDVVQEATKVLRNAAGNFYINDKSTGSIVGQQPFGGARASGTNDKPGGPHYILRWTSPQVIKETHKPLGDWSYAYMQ
UniProt Q13155: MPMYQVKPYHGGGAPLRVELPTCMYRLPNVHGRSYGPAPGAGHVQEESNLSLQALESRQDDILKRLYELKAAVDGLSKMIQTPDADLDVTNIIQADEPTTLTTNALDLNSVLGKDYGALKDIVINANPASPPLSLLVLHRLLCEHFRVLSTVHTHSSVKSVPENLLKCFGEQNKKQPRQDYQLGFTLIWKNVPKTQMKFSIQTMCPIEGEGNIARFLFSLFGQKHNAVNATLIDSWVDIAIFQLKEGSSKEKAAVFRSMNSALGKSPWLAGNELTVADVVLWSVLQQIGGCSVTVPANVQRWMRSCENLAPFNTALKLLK
UniProt Q53H12: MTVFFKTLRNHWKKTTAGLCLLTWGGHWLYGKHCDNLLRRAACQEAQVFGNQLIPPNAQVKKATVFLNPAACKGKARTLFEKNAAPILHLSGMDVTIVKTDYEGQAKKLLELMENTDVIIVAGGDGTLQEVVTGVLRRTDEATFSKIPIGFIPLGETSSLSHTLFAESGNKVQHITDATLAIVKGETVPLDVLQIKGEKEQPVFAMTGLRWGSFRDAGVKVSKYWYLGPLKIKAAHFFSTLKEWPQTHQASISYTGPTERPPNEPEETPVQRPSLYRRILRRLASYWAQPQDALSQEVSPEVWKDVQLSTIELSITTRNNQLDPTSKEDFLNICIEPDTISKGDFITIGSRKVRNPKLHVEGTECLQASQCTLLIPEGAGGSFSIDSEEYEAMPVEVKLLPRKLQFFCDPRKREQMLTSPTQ
UniProt P14550: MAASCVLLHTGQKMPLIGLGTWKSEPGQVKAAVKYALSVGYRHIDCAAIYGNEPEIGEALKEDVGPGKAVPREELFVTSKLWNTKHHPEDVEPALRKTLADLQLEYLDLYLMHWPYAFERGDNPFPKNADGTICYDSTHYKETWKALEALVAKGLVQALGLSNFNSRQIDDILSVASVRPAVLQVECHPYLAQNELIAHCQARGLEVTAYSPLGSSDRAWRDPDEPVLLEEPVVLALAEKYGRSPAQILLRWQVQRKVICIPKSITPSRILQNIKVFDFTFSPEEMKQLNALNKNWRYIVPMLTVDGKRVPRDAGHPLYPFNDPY
UniProt P51649: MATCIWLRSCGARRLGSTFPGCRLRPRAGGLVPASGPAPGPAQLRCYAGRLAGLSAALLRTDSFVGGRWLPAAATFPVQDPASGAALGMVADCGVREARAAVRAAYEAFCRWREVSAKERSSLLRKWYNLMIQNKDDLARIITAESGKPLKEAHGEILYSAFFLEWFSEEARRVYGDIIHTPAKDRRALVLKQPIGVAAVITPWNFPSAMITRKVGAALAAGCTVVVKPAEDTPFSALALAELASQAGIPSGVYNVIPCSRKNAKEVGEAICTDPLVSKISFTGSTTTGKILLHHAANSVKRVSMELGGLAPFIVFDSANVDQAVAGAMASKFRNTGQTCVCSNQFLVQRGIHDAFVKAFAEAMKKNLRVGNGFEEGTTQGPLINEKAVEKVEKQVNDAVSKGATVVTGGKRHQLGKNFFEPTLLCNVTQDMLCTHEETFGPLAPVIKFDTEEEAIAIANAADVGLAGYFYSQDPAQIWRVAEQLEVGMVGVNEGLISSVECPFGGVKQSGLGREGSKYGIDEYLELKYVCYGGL
UniProt O43488: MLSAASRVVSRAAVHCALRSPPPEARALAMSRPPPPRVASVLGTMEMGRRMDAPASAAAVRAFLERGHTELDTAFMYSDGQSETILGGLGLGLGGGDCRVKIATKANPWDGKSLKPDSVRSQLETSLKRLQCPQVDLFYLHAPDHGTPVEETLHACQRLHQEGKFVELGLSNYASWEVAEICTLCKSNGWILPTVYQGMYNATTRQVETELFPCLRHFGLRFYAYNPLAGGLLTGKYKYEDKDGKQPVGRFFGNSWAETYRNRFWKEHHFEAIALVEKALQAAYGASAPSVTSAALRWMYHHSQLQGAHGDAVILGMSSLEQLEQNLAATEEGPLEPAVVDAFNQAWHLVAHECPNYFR
UniProt Q9UHX3: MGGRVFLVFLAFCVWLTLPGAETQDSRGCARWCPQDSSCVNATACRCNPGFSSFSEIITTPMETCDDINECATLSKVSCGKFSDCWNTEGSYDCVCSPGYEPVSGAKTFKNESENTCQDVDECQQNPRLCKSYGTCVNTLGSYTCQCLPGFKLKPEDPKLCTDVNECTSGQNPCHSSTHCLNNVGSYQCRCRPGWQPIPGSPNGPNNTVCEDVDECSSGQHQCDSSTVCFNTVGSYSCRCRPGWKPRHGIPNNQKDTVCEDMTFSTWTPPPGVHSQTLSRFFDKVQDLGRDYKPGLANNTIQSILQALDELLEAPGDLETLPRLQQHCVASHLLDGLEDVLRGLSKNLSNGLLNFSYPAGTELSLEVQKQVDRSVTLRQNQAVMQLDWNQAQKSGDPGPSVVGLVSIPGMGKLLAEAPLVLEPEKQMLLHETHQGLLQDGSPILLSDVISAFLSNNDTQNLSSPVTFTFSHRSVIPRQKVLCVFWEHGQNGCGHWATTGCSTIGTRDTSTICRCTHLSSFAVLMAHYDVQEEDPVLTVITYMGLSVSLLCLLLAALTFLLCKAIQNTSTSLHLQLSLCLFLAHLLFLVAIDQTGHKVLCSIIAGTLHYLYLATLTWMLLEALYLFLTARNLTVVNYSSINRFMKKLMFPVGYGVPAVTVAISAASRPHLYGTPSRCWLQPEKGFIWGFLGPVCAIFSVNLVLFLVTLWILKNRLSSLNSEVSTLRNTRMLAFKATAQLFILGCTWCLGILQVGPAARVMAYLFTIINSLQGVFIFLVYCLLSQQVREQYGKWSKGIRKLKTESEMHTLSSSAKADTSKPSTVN
UniProt P55263: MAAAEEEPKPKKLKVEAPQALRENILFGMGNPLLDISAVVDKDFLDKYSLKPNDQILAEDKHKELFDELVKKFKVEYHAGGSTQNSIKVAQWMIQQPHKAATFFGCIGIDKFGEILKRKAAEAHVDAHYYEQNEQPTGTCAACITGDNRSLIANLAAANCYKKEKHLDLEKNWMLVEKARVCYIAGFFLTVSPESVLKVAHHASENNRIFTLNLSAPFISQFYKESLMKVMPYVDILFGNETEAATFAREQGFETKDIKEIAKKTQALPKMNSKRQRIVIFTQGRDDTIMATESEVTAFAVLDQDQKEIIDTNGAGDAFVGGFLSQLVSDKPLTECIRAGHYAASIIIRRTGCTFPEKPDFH
UniProt O94788: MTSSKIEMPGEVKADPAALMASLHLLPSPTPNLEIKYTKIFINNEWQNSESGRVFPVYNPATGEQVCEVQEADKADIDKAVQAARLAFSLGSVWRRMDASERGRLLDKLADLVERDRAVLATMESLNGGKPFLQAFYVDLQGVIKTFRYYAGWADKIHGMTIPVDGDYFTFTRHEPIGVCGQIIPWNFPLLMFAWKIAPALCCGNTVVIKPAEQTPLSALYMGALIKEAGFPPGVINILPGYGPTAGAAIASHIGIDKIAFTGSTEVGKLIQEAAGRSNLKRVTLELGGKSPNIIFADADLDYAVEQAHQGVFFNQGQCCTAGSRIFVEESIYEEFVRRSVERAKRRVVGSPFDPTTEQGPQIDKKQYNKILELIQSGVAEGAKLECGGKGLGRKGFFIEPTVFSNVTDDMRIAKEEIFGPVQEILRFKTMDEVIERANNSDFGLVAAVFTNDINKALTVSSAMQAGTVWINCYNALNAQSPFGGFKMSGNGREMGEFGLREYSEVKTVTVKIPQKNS
UniProt Q3KRA9: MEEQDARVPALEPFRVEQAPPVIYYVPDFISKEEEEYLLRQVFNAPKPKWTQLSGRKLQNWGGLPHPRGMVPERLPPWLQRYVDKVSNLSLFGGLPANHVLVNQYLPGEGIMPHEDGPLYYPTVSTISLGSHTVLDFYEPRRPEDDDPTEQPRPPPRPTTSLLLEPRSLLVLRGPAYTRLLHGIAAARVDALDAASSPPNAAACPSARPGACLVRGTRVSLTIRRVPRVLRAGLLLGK
UniProt Q16186: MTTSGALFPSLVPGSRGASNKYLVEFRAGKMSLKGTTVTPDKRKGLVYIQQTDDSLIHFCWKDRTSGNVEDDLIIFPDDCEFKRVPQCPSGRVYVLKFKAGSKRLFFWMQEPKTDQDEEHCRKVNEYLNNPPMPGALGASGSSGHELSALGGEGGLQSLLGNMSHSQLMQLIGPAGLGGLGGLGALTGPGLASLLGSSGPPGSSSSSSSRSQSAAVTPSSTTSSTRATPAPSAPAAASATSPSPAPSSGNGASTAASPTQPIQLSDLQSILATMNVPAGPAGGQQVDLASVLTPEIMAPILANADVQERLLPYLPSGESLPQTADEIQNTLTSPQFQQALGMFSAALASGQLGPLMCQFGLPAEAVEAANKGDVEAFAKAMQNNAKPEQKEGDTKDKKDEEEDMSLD

Experiments:
Assay in all cases: log2 fold change, soluble protein after heating vs DMSO (PISA); higher = thermal stabilisation; K562 cells, 10 uM, 30 min; active = over 0.2 and 3.5 SD of the protein, either way, in both replicates (recomputed)
IRAK-1-4 Inhibitor I = compound: C1COCCN1CCN2C3=CC=CC=C3N=C2NC(=O)C4=CC(=CC=C4)[N+](=O)[O-] [IRAK-1-4 Inhibitor I]
Outline: (§1)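 Aliquots of K562 cells (2×10^6 cells/mL) treated with 10 μM compound for 30 min were heated for 3 min over 48°C-58°C. After pooling and extraction in PBS with 0.5% NP-40 at 4°C, soluble protein from a 21,000xg, 90 min spin was quantified by TMTpro 16plex LC-MS/MS with channel sums equalised. Thermal stability is expressed against control samples, from duplicates, as a log2 fold change.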

ibrutinib = compound: C=CC(=O)N1CCC[C@@H](n2nc(-c3ccc(Oc4ccccc4)cc3)c3c(N)ncnc32)C1 [ibrutinib]
Outline: as §1

[1] = compound: CC(=O)c1cnc2ccc(-c3cc(Cl)c(O)c(Cl)c3)nc2c1N[C@H]1CC[C@H](CN(C)C)CC1
Outline: as §1

ralimetinib = compound: CC(C)(C)Cn1c(N)nc2ccc(-c3[nH]c(C(C)(C)C)nc3-c3ccc(F)cc3)nc21 [ralimetinib]
Outline: as §1

[2] = compound: CC(C)(O)CC(=O)NCCn1ccc2ncnc(Nc3ccc(Oc4cccc(C(F)(F)F)c4)c(Cl)c3)c21
Outline: as §1

[3] = compound: CC(C)C1=C2N=C(C=C(N2N=C1)NCC3=CC=CC=C3)NCCCCCCN
Outline: as §1

[4] = compound: CC(C)C[C@@H](C=O)NC(=O)[C@H](CC(C)C)NC(=O)[C@H](CC(C)C)NC(=O)OCc1ccccc1
Outline: as §1

pinometostat = compound: CC(C)N(C[C@H]1O[C@@H](n2cnc3c(N)ncnc32)[C@H](O)[C@@H]1O)[C@H]1C[C@@H](CCc2nc3cc(C(C)(C)C)ccc3[nH]2)C1 [pinometostat]
Outline: as §1

[5] = compound: CC1=C(C2=C(C=C1)C(=O)C3=CC=CC=C3N2CCCN)C
Outline: as §1

[6] = compound: CC1=C(C=C(C=C1)NC(=O)C2=CC(=CC=C2)C(C)(C)C#N)NC3=CC4=C(C=C3)N=CN(C4=O)C
Outline: as §1

[7] = compound: CC1=C(C=C(C=C1)NC(=O)C2=CC(=CC=C2)N(C)C)NC(=O)C3=CC=C(C=C3)O
Outline: as §1

[8] = compound: CC1=CC=C(C=C1)SC2=C3C=C(SC3=CN=C2)C(=O)N
Outline: as §1

[9] = compound: CC1=NC(=CC=C1)C2=C(N=C(N2)C(C)(C)C)C3=CC4=NC=CN=C4C=C3
Outline: as §1

Nexturastat A = compound: CCCCN(Cc1ccc(C(=O)NO)cc1)C(=O)Nc1ccccc1 [Nexturastat A]
Outline: as §1

vemurafenib = compound: CCCS(=O)(=O)Nc1ccc(F)c(C(=O)c2c[nH]c3ncc(-c4ccc(Cl)cc4)cc23)c1F [vemurafenib]
Outline: as §1

[10] = compound: CCCS(=O)(=O)Nc1ccc(F)c(C(=O)c2c[nH]c3ncc(Cl)cc23)c1F
Outline: as §1

[11] = compound: CCCc1cc(C)[nH]c(=O)c1CNC(=O)c1cc(-c2ccnc(N3CCN(C)CC3)c2)cc2c1cnn2C(C)C
Outline: as §1

givinostat = compound: CCN(CC)Cc1ccc2cc(COC(=O)Nc3ccc(C(=O)NO)cc3)ccc2c1 [givinostat]
Outline: as §1

barasertib = compound: CCN(CCCOc1ccc2c(Nc3cc(CC(=O)Nc4cccc(F)c4)[nH]n3)ncnc2c1)CCOP(=O)(O)O [barasertib]
Outline: as §1

[12] = compound: CC1=C(C(CC(=O)N1)C2=CC=C(C=C2)C(F)(F)F)C(=O)NC3=C(C=C4C(=C3)C=NN4)F
Outline: as §1

Measured: log2 fold change

ADPRHL2 (UniProt Q9NX46)
inactive: IRAK-1-4 Inhibitor I 0 | ibrutinib -0.021 | [1] -0.025 | ralimetinib -0.021 | [2] -0.088 | [3] 0.08 | [4] -0.038 | pinometostat -0.015 | [5] -0.002 | [6] 0.022 | [7] -0.06 | [8] 0.007 | [9] 0.111 | Nexturastat A -0.077 | vemurafenib 0.126 | [10] 0.076 | [11] -0.003 | givinostat 0.004 | barasertib 0.043

AGRN (UniProt O00468)
inactive: IRAK-1-4 Inhibitor I -0.205 | ibrutinib 0.09 | [1] -0.025 | ralimetinib 0.125 | [2] -0.022 | [3] 0.156 | [4] -0.066 | pinometostat -0.005 | [5] 0.014 | [6] -0.089 | [7] -0.294 | [8] -0.031 | [9] 0.014 | Nexturastat A -0.051 | vemurafenib -0.025 | [10] -0.072 | [11] 0.024 | givinostat -0.011 | barasertib 0.011

ADPGK (UniProt Q9BRR6)
inactive: IRAK-1-4 Inhibitor I 0.007 | ibrutinib -0.026 | [1] -0.021 | ralimetinib -0.02 | [2] 0.009 | [3] 0.058 | [4] -0.059 | pinometostat -0.066 | [12] 0.084 | [5] 0.021 | [6] 0.017 | [7] 0.01 | [8] -0.009 | [9] 0.06 | Nexturastat A 0.048 | vemurafenib -0.014 | [10] -0.007 | [11] -0.036 | givinostat -0.034 | barasertib 0

AIDA (UniProt Q96BJ3)
inactive: IRAK-1-4 Inhibitor I 0.014 | ibrutinib 0.02 | [1] -0.022 | ralimetinib -0.012 | [2] -0.051 | [3] 0.016 | [4] -0.075 | pinometostat -0.02 | [12] -0.017 | [5] -0.013 | [6] 0.03 | [7] 0.019 | [8] -0.015 | [9] -0.032 | Nexturastat A -0.006 | vemurafenib 0.015 | [10] 0.008 | [11] -0.045 | givinostat 0.031 | barasertib 0.044

ALDH4A1 (UniProt P30038)
inactive: IRAK-1-4 Inhibitor I 0.038 | ibrutinib 0.022 | [1] -0.009 | ralimetinib 0.014 | [2] -0.064 | [3] -0.081 | [4] 0.011 | pinometostat -0.067 | [12] -0.031 | [5] 0.034 | [6] 0.043 | [7] 0.005 | [8] -0.012 | [9] 0.035 | Nexturastat A -0.035 | vemurafenib 0.013 | [10] 0.006 | [11] -0.01 | givinostat -0.04 | barasertib 0.01

4 successive entries already listed, for reference:
ADPRHL2 (UniProt Q9NX46)
inactive: IRAK-1-4 Inhibitor I 0 | ibrutinib -0.021 | [1] -0.025 | ralimetinib -0.021 | [2] -0.088 | [3] 0.08 | [4] -0.038 | pinometostat -0.015 | [5] -0.002 | [6] 0.022 | [7] -0.06 | [8] 0.007 | [9] 0.111 | Nexturastat A -0.077 | vemurafenib 0.126 | [10] 0.076 | [11] -0.003 | givinostat 0.004 | barasertib 0.043

AGRN (UniProt O00468)
inactive: IRAK-1-4 Inhibitor I -0.205 | ibrutinib 0.09 | [1] -0.025 | ralimetinib 0.125 | [2] -0.022 | [3] 0.156 | [4] -0.066 | pinometostat -0.005 | [5] 0.014 | [6] -0.089 | [7] -0.294 | [8] -0.031 | [9] 0.014 | Nexturastat A -0.051 | vemurafenib -0.025 | [10] -0.072 | [11] 0.024 | givinostat -0.011 | barasertib 0.011

ADPGK (UniProt Q9BRR6)
inactive: IRAK-1-4 Inhibitor I 0.007 | ibrutinib -0.026 | [1] -0.021 | ralimetinib -0.02 | [2] 0.009 | [3] 0.058 | [4] -0.059 | pinometostat -0.066 | [12] 0.084 | [5] 0.021 | [6] 0.017 | [7] 0.01 | [8] -0.009 | [9] 0.06 | Nexturastat A 0.048 | vemurafenib -0.014 | [10] -0.007 | [11] -0.036 | givinostat -0.034 | barasertib 0

AIDA (UniProt Q96BJ3)
inactive: IRAK-1-4 Inhibitor I 0.014 | ibrutinib 0.02 | [1] -0.022 | ralimetinib -0.012 | [2] -0.051 | [3] 0.016 | [4] -0.075 | pinometostat -0.02 | [12] -0.017 | [5] -0.013 | [6] 0.03 | [7] 0.019 | [8] -0.015 | [9] -0.032 | Nexturastat A -0.006 | vemurafenib 0.015 | [10] 0.008 | [11] -0.045 | givinostat 0.031 | barasertib 0.044

Additional results follow.

AIMP2 (UniProt Q13155)
inactive: IRAK-1-4 Inhibitor I -0.105 | ibrutinib 0.025 | [1] 0.285 | ralimetinib 0.203 | [2] 0.054 | [3] -0.353 | [4] 0.141 | pinometostat 0.428 | [12] 0.05 | [5] -0.07 | [6] -0.013 | [7] 0.038 | [8] -0.011 | [9] -0.092 | Nexturastat A 0.593 | vemurafenib -0.043 | [10] -0.004 | [11] 0.115 | givinostat 0.068 | barasertib -0.032

AGK (UniProt Q53H12)
inactive: IRAK-1-4 Inhibitor I 0.057 | ibrutinib 0.029 | [1] 0.012 | ralimetinib -0.035 | [2] -0.072 | [3] -0.12 | [4] 0.004 | pinometostat -0.031 | [12] 0.023 | [5] 0.019 | [6] -0.02 | [7] 0.003 | [8] 0.039 | [9] 0.066 | Nexturastat A -0.056 | vemurafenib -0.003 | [10] 0.032 | [11] -0.016 | givinostat 0.026 | barasertib 0.021

AKR1B1 (UniProt P15121)
inactive: IRAK-1-4 Inhibitor I 0 | ibrutinib 0.021 | [1] -0.004 | ralimetinib -0.01 | [2] 0.093 | [3] 0.103 | [4] 0.009 | pinometostat 0.104 | [12] 0.006 | [5] -0.006 | [6] 0.026 | [7] -0.057 | [8] 0.014 | [9] -0.067 | Nexturastat A -0.018 | vemurafenib 0.003 | [10] -0.014 | [11] -0.003 | givinostat 0.058 | barasertib 0.008

AKR1A1 (UniProt P14550)
inactive: IRAK-1-4 Inhibitor I 0 | ibrutinib -0.037 | [1] -0.028 | ralimetinib -0.004 | [2] -0.05 | [3] 0.018 | [4] 0.011 | pinometostat -0.03 | [12] -0.017 | [5] 0.017 | [6] -0.002 | [7] -0.018 | [8] -0.019 | [9] 0.066 | Nexturastat A -0.094 | vemurafenib 0.024 | [10] 0.025 | [11] 0.014 | givinostat -0.008 | barasertib 0.013

ALDH5A1 isoform 2 (UniProt P51649)
inactive: IRAK-1-4 Inhibitor I 0.033 | ibrutinib 0.013 | [1] 0.015 | ralimetinib -0.063 | [2] -0.001 | [3] 0.04 | [4] -0.007 | pinometostat -0.045 | [12] -0.004 | [5] 0.013 | [6] -0.026 | [7] 0.002 | [8] 0.025 | [9] 0.012 | Nexturastat A -0.043 | vemurafenib 0.008 | [10] 0.031 | [11] -0.032 | givinostat -0.032 | barasertib -0.006

AKR7A2 (UniProt O43488)
inactive: IRAK-1-4 Inhibitor I 0.042 | ibrutinib -0.001 | [1] 0.069 | ralimetinib -0.037 | [2] -0.028 | [3] -0.007 | [4] 0.02 | pinometostat -0.033 | [12] -0.008 | [5] -0.004 | [6] 0.02 | [7] 0.015 | [8] 0.074 | [9] 0.027 | Nexturastat A -0.061 | vemurafenib 0.04 | [10] 0.136 | [11] 0.18 | givinostat -0.056 | barasertib 0.025

ADGRE2 (UniProt Q9UHX3)
inactive: IRAK-1-4 Inhibitor I 0.056 | ibrutinib 0.035 | [1] -0.016 | ralimetinib 0.057 | [2] 0.011 | [3] 0.084 | [4] 0.005 | pinometostat 0.011 | [12] 0.033 | [5] 0.071 | [6] -0.024 | [7] -0.049 | [8] -0.036 | [9] -0.011 | Nexturastat A 0.016 | vemurafenib 0 | [10] 0.046 | [11] -0.16 | givinostat 0.064 | barasertib 0.003

ADK (UniProt P55263)
inactive: IRAK-1-4 Inhibitor I 0.08 | ibrutinib 0.034 | [1] 0.184 | ralimetinib 0.246 | [2] -0.002 | [3] 0.074 | [4] -0.058 | pinometostat 0.016 | [5] -0.001 | [6] 0.03 | [7] -0.027 | [8] 0 | [9] -0.011 | Nexturastat A -0.04 | vemurafenib -0.013 | [10] -0.046 | [11] 0.106 | givinostat -0.076 | barasertib -0.026

ALDH1A2 (UniProt O94788)
inactive: IRAK-1-4 Inhibitor I 0.044 | ibrutinib 0.101 | [1] -0.003 | ralimetinib -0.008 | [2] -0.019 | [3] 0.036 | [4] -0.023 | pinometostat -0.032 | [12] -0.016 | [5] 0.033 | [6] 0.021 | [7] 0.014 | [8] 0.011 | [9] 0.018 | Nexturastat A -0.076 | vemurafenib 0.011 | [10] 0.001 | [11] -0.04 | givinostat 0.003 | barasertib -0.005

ALKBH6 isoform 2 (UniProt Q3KRA9)
inactive: IRAK-1-4 Inhibitor I 0.13 | ibrutinib -0.039 | [1] 0.01 | ralimetinib 0.017 | [2] 0.031 | [3] 0.02 | [4] 0.126 | pinometostat -0.033 | [12] -0.002 | [5] 0.029 | [6] -0.015 | [7] 0.044 | [8] -0.046 | [9] -0.008 | Nexturastat A 0.073 | vemurafenib -0.098 | [10] 0.043 | [11] 0.001 | givinostat -0.02 | barasertib 0.014

ADRM1 (UniProt Q16186)
inactive: IRAK-1-4 Inhibitor I -0.096 | ibrutinib -0.111 | [1] 0.033 | ralimetinib 0.065 | [2] -0.077 | [3] -0.005 | [4] -0.064 | pinometostat 0.015 | [5] 0.04 | [6] 0.067 | [7] 0.009 | [8] -0.013 | [9] 0.024 | Nexturastat A 0.104 | vemurafenib -0.022 | [10] -0.028 | [11] 0.01 | givinostat 0.034 | barasertib -0.021
